Experimental data: the supplement of paper PMC5949888
Most values lie at the floor of the assay. Slopes are relative: functional sequences can read slightly below zero.

What follows are substances tested on Saccharomyces cerevisiae PS128 hsf1 delta, HSF1(1-493) fusion (assay: growth estimate (transactivation domain function in HSF1 fusion, heat-shock survival) (a.u. (slope of normalised read count over time)); higher = stronger growth at 37°C, i.e. more transactivation activity). Settings: library: random library.
Substance RYVSRSEVIVEPQSLRIA has a growth estimate of under -0.25. Work on LNPGLKYCSCRL yielded a growth estimate of under -0.25. For HLSRGQH, the growth estimate was under -0.25. WEATVLRACSGGSCSRQ was tested, and the growth estimate was under -0.25. In the case of YGNVSHDDKVYNPKTIQGCM, the growth estimate is reported as under -0.25. RHMRRNMVARRG showed a growth estimate of under -0.25. CGKIRVI showed a growth estimate of under -0.25. With RIPIPQVYSPQANGVF the growth estimate was -0.248. Work on QTRQTPTVSRNNDD yielded a growth estimate of under -0.25. Substance WSHRVPVCSDDFAV has a growth estimate of under -0.25. For LSGKLSEDWWVECWQGHASR, the growth estimate was under -0.25. With GFWGP the growth estimate was under -0.25. Substance ACKYHYRGC has a growth estimate of 0.0973. In the case of APHDGGPRSNEQYLDLVALE, the growth estimate is reported as under -0.25. QSQKLSRYVVMGCKVW was tested, and the growth estimate was under -0.25. TGSEPGPV gave a growth estimate of under -0.25. VMSRTQDRIYGWTAIHGNSK gave a growth estimate of -0.24. FVVKFSTRSYAQKSKARSGD was tested, and the growth estimate was under -0.25. In the case of LRLYIGASCVQTVEVRSARM, the growth estimate is reported as under -0.25. Work on LLPSPARVPPQLINYRTFRS yielded a growth estimate of under -0.25. Work on PGRFTRSRE yielded a growth estimate of under -0.25. LASGAGNGFCELKILAPNTR gave a growth estimate of under -0.25. In the case of RVCGFKDVF, the growth estimate is reported as under -0.25. Substance KLPHP has a growth estimate of -0.25. In the case of VGLSCFGPLFG, the growth estimate is reported as under -0.25. Substance RSAVLYGRSTE has a growth estimate of under -0.25. Substance GPGVEYGPCIFVSGVNLSPG has a growth estimate of under -0.25. FVCCLRCLKGIVHVSIFDLC gave a growth estimate of under -0.25. TISAPLRLRSAMRG gave a growth estimate of under -0.25. SGPLGLESALHDYNALLVSA showed a growth estimate of under -0.25. Substance LKCGLTGTIIVVEVHGGAWR has a growth estimate of under -0.25. Work on LAGAKKFRF yielded a growth estimate of -0.243. ECLVEE showed a growth estimate of under -0.25. RVSMQN was tested, and the growth estimate was under -0.25. Substance QRRGGCHGGIEVVFSSDMT has a growth estimate of under -0.25. In the case of FRPGSGVG, the growth estimate is reported as under -0.25. Work on EQQLHRLYIKY yielded a growth estimate of under -0.25. LLGKCYL was tested, and the growth estimate was under -0.25. For QRCDYREGVETGDRICGRRT, the growth estimate was under -0.25. With QVHLEDLRSYRVLCRSMYPV the growth estimate was under -0.25. AGLRVQGPVREVNSGD gave a growth estimate of under -0.25. With LRLRWSVVLDRGVDAS the growth estimate was under -0.25. MDTSLTRQGSVRALTANLAR gave a growth estimate of under -0.25. KSL showed a growth estimate of under -0.25. FGP showed a growth estimate of under -0.25. LLNRIRSTSNAARPHRPRFR gave a growth estimate of under -0.25. GLPPVSGRRLINSMRP gave a growth estimate of under -0.25. GDVVFWVFNLELVRAVRSPS was tested, and the growth estimate was under -0.25. IGPFRVIHGAGYENSAPLTP gave a growth estimate of under -0.25. For EGILRDN, the growth estimate was under -0.25. For RAVISVPRGIGMVGGPACRG, the growth estimate was under -0.25. Substance LRDDVLCRCGYGSTYLKKVP has a growth estimate of under -0.25. VRCGGPRDVQ showed a growth estimate of under -0.25. In the case of QVDLPYRLII, the growth estimate is reported as under -0.25. Substance VAYGSLNLSQTVVGSTAI has a growth estimate of under -0.25. For CCWTSRGPSPLLRIPKMVDK, the growth estimate was under -0.25. In the case of VRLSTICFCHQ, the growth estimate is reported as -0.248. Substance ARGHIH has a growth estimate of under -0.25. For QDDARRGR, the growth estimate was under -0.25. For ASASSSSVQPRGAIGMVIIQ, the growth estimate was under -0.25. In the case of VPLWGG, the growth estimate is reported as under -0.25. Substance LRRTGSGDDSGARQHPREVL has a growth estimate of under -0.25. Work on VYPSVLRRLVHYEFSPATGS yielded a growth estimate of under -0.25. In the case of SEGLATLRTIAVEGLRRTRL, the growth estimate is reported as under -0.25. Work on FIWGRGKLGSKIKQLSSMSA yielded a growth estimate of under -0.25. Work on LLRVI yielded a growth estimate of under -0.25. NYVLECLVRWGRPLYVSFSI was tested, and the growth estimate was under -0.25. TDD gave a growth estimate of under -0.25. GRAGFDR was tested, and the growth estimate was under -0.25. Work on GIGHLLSVLLPGVRIRLRSG yielded a growth estimate of under -0.25. Work on SCQWSSDHRVCD yielded a growth estimate of under -0.25. With EPLH the growth estimate was under -0.25. VVMKRVGKRDDGTSLYEWCG gave a growth estimate of under -0.25. In the case of VGTFHDPITEHDISHQK, the growth estimate is reported as under -0.25. With RDSARKAVCMAVSYLRWSDQ the growth estimate was under -0.25. For ECDQRLEKKGHSKSLRAFLF, the growth estimate was under -0.25. Work on SWHLSNAKPGGRLRGQMIAR yielded a growth estimate of under -0.25. IAKQTGDAFRVAL gave a growth estimate of under -0.25. For LVAMGTLLTSQFCNRWALAT, the growth estimate was under -0.25. In the case of PTTKIAESFYQIRSHYQMLH, the growth estimate is reported as under -0.25. VGGG showed a growth estimate of under -0.25. With REDRTNPNNFVWPWA the growth estimate was 2.17. With VSIEAQ the growth estimate was under -0.25. RAWTTNTPGGGCEGY showed a growth estimate of under -0.25. VSGGVAEKDD was tested, and the growth estimate was under -0.25. In the case of ASSRQSRVARGSRPVCGPLI, the growth estimate is reported as under -0.25. For HSGSGYLFTAGRGGLSVCEL, the growth estimate was under -0.25. In the case of QPSTIDHLAIVLRIFLASHS, the growth estimate is reported as under -0.25. GVKRDSASFQ gave a growth estimate of under -0.25. ECA gave a growth estimate of under -0.25. Substance LVAYAMRVGAVLREVNLSWF has a growth estimate of under -0.25. VRACLTLSAELSAPKCPRHI gave a growth estimate of under -0.25. GVSQSGDGRRQLDLLNQQGS showed a growth estimate of under -0.25. Substance SLDDRYACNLYWEASRLAPR has a growth estimate of under -0.25. Work on GSSRWSKGRPPNHT yielded a growth estimate of under -0.25. RRRISGFIAANC gave a growth estimate of under -0.25. RLRKMKVGIYA gave a growth estimate of under -0.25. For LNMHSIEFGCRRH, the growth estimate was under -0.25. For VVGHSKC, the growth estimate was under -0.25. LVHLAETIALQISVGIRPVC was tested, and the growth estimate was under -0.25.
